The values below come from US20070232520A1.

Protein sequences, listed by entry. Tags and fused reporters are not part of them. Lines headed by an entry give the natural chain unless they say otherwise; changes in a name come on top.
UniProt P20333: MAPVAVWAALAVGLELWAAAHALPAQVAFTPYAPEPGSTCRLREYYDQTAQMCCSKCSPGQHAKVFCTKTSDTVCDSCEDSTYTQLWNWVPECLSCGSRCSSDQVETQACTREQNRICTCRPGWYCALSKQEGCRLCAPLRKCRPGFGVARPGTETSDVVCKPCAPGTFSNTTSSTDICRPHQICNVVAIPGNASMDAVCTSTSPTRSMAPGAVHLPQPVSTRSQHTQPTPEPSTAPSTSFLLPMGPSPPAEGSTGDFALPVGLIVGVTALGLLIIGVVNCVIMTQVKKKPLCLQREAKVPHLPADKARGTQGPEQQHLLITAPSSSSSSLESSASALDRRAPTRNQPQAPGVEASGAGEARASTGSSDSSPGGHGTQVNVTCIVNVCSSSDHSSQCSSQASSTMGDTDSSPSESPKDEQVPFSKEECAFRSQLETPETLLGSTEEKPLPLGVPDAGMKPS

These are yes or no findings as the source states them, for the method shown. For some assays here: Binding can be weak; no strength is given.

The target of assay [1] is full-length intracellular domain of the p75-TNF-R (p75IC) (human) (UniProt P20333). Kind of assay: yeast two-hybrid.
For assay [2] the target is unchanged. Kind of assay: yeast two-hybrid (L40 screen, specificity in SFY526).
Assay [3] has the same target. Kind of assay: yeast two-hybrid (SFY526), various baits.
The next assay deals with cyclin D. Kind of assay: yeast two-hybrid (SFY526), various baits.

B1: protein encoded by the 230 clone (protein)
chain: GPIREAGLAGWLALGCSGPPAEAAGGAGEPWPQHSGKGQLAGRNAWVKKRKAPRENSPGVRSCRASGRASRPHGDPFLLTLPRARHPVTLNVTIQVSLKQRNVRFNTPFRRGEN
Regarding B1, the binding entry in assay [1], in assay [2] and in assay [3] was “binds” each time.

B2: E3 (p75IC-binding protein encoded by clone E3) (protein)
chain: TFKIRMEPDETVKVLKEKIEAEKGRDAFPVAGQKLIYAGKILSDDVPIRDYRIDEKNFVVVMVTKTKAGQGTSAPPEASPTAAPESSTSFPPAPTSGMSHPPPAAREDKSPSEESTPTPEQEPCLZ
As for B2, the binding entry in assay [1] is “binds”; in assay [2], “binds”; in assay [3], “binds”; with cyclin D it was “no binding”.

B3: E19 (p75IC-binding protein encoded by clone E19) (protein)
chain: EAAGRERERTLEYAEAHAFKSPSKENKKKDKDMLEDKFKSNNLEREQEQLDRIVKESGGKLTRRLVNSQCEFERRKPDGTTTLGLLHPVDPIVGEPGYCPVRLGMTTGRLQSGVNTLQGFKEDKRNKVTPVLYLELWAPTVLYAPHYDSTFANYQQGLI
B3: the binding result is recorded as “binds” in assay [1], “binds” in assay [2], “binds” in assay [3] and “no binding” with cyclin D.
